Results are given in words; binding and its absence hold for the method and conditions named. Binding seen in cells or lysates may run through a third protein. A result given as binding can be weak or reduced; the word gives no strength. Tags and fused reporters may be left off the sequences shown.
Target: T1, Flag tagged PA0034 (two-component response regulator) (Pseudomonas aeruginosa PAO1) (UniProt P24908)
T1 sequence: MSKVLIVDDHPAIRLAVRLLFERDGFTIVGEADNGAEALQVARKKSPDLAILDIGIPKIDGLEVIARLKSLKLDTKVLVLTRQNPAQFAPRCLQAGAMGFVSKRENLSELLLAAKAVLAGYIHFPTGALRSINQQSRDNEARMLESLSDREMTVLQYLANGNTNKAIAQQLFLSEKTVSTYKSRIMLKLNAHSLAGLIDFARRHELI
Assay: co-IP; co-IP of flag-PA0034 and HA-LadS, detected by western blotting; which of the two was precipitated is not told

Chains of the proteins cited; added tags and fusions are not shown. Lines headed by an entry give the natural chain unless they say otherwise; changes in a name come on top.
UniProt Q9HX42: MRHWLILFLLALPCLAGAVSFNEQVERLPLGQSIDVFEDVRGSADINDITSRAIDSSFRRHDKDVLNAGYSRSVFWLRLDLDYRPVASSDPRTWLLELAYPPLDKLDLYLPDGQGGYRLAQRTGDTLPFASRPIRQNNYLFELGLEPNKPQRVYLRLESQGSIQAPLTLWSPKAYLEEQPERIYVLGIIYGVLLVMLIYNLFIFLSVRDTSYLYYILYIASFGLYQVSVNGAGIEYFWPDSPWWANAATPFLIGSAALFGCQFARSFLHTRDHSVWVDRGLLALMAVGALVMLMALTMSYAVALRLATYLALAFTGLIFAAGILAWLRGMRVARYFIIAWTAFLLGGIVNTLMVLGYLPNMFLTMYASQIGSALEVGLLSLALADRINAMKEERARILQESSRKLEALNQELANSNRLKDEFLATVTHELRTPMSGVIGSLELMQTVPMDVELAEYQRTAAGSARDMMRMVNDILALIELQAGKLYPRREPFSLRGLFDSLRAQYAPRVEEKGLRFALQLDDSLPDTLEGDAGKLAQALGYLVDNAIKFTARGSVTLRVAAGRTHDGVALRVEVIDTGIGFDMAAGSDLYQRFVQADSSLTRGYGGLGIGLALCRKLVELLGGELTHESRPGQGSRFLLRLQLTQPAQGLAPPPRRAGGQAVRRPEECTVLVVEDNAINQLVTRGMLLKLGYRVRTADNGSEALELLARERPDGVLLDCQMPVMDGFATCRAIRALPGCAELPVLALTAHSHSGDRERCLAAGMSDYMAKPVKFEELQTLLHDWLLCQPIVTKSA

HA-LadS (from UniProt Q9HX42) (enzyme) was tested, and the binding was “binds”.

— PMC11237798
